Laboratory results from patent US9375000B2, “Pesticidal arylpyrrolidines” (Bayer Intellectual Property GmbH, priority 2011, dated 2016).
Some of these results come from one statement about several compounds together.

Key:
Type in all cases: in vivo
[1] = test system: adult engorged female Boophilus microplus ticks; test: Test against Boophilus microplus (dip); details: after 7 days
Procedure: (§1) Solvent: dimethyl sulfoxide
To produce a suitable preparation of active compound, 10 mg of active compound are dissolved in 0.5 ml solvent, and the concentrate is diluted with water to the desired concentration. Eight to ten adult engorged female Boophilus microplus ticks are placed in perforated plastic beakers and immersed in aqueous compound solution for one minute. Ticks are transferred to a filter paper in a plastic tray. Egg deposition of fertile eggs is monitored after. After 7 days mortality in % is determined. 100% means that all the ticks have been killed; 0% means that none of the ticks have been killed.

[2] = test system: adult engorged female ticks (Boophilus microplus); test: Boophilus microplus (injection); details: application rate 20 μg/animal, after 7 days
Ctenocephalides felis = test: Test against Ctenocephalides felis (CTECFE), blood feeding; details: application rate 100 ppm in cattle blood; after 2 days
Procedure: as §1
To produce a suitable preparation of active compound, 10 mg of active compound are dissolved in 0.5 ml solvent, and the concentrate is diluted with cattle blood to the desired concentration. Approximately 20 adult unfed (Ctenocepahlides felis) are placed in flea chambers. The blood chamber, sealed with parafilm on the bottom, are filled with cattle blood supplied with compound solution and placed on top of the flea chamber, so that the fleas are able to suck the blood. The blood chamber is heated to 37° C. whereas the flea chamber is kept at room temperature.
After 2 days mortality in % is determined. 100% means that all the fleas have been killed; 0% means that none of the fleas have been killed.

[3] = test system: Lucilia cuprina 1st instar larvae; test: Test against Lucilia cuprina larvae; details: application rate 100 ppm; after 48 hrs
Procedure: as §1
10 mg active compound are dissolve in 0.5 mL dimethyl sulfoxide. Serial dilutions are made to obtain the desired rates.
Approximately 20 Lucilia cuprina 1st instar larvae are transferred into a test tube containing 1 cm^3 of minced horse meat and 0.5 ml aqueous dilution of test compound. After 48 hrs percentage of larval mortality are recorded. 100% efficacy=all larvae are killed, […].

Musca domestica = test: Test against Musca domestica; details: application rate 100 ppm; after 2 days
Procedure: as §1
To produce a suitable preparation of active compound, 10 mg of active compound are dissolved in 0.5 ml solvent, and the concentrate is diluted with water to the desired concentration. Prior to the assay, a piece of kitchen sponge is soaked with a mixture of sugar and compound solution and placed into a container. 10 adults (Musca domestica) are placed into the container and closed with a perforated lid. After 2 days mortality in % is determined. 100% means that all the flies have been killed; 0% means that none of the flies have been killed.

O=C(CC(F)(F)F)NCc1ccc(N2CCC(c3cc(Cl)cc(Cl)c3)(C(F)(F)F)C2O)cc1F (mixture of isomers) [A1-101]
100%: activity (mortality) ([1]; application rate 100 ppm)

O=C(CC(F)(F)F)NCc1ccc(N2CCC(c3cc(Cl)cc(Cl)c3)(C(F)(F)F)C2O)cc1Br (mixture of isomers) [A1-112]
100%: activity (mortality; infertile eggs) [2] | activity (mortality) ([1]; application rate 100 ppm) | activity (mortality) (Ctenocephalides felis) | activity (larval mortality) [3]

CCC(=O)NC(C)c1ccc(N2CCC(c3cc(Cl)c(Cl)c(Cl)c3)(C(F)(F)F)C2O)cc1 (mixture of isomers) [A2-13]
100%: activity (mortality; infertile eggs) [2] | activity (mortality) ([1]; application rate 20 ppm) | activity (mortality) (Ctenocephalides felis) | activity (larval mortality) [3]

CSCC(=O)NCc1ccc(N2CCC(c3cc(C(F)(F)F)cc(C(F)(F)F)c3)(C(F)(F)F)C2O)nc1Br (mixture of isomers) [A3-163]
100%: activity (mortality; infertile eggs) [2] | activity (mortality) ([1]; application rate 100 ppm) | activity (mortality) (Ctenocephalides felis) | activity (larval mortality) [3] | activity (mortality) (Musca domestica)

C[S+]([O-])CC(=O)NCc1ccc(N2CCC(c3cc(C(F)(F)F)cc(C(F)(F)F)c3)(C(F)(F)F)C2O)nc1Br (mixture of isomers) [A3-164]
100%: activity (mortality; infertile eggs) [2] | activity (mortality) ([1]; application rate 100 ppm) | activity (mortality) (Ctenocephalides felis) | activity (larval mortality) [3] | activity (mortality) (Musca domestica)

O=C(NCc1ccc(N2CCC(c3cc(F)cc(Cl)c3)(C(F)(F)F)C2O)nc1C(F)(F)F)C1CC1 (mixture of isomers) [A3-170]
100%: activity (mortality; infertile eggs) [2] | activity (mortality) ([1]; application rate 100 ppm) | activity (mortality) (Ctenocephalides felis) | activity (larval mortality) [3]

CC(=O)NCc1ccc(N2CCC(c3cc(Cl)c(F)c(Cl)c3F)(C(F)(F)F)C2O)nc1C(F)(F)F (mixture of isomers) [A3-210]
100%: activity (mortality; infertile eggs) [2] | activity (mortality) ([1]; application rate 100 ppm) | activity (mortality) (Ctenocephalides felis) | activity (larval mortality) [3] | activity (mortality) (Musca domestica)

O=C(NCc1ccc(N2CCC(c3cc(Cl)c(F)c(Cl)c3F)(C(F)(F)F)C2O)nc1C(F)(F)F)C1CC1 (mixture of isomers) [A3-214]
100%: activity (mortality; infertile eggs) [2] | activity (mortality) ([1]; application rate 100 ppm) | activity (mortality) (Ctenocephalides felis) | activity (larval mortality) [3] | activity (mortality) (Musca domestica)

O=C(NCc1ccc(N2CCC(c3cc(F)cc(C(F)(F)F)c3)(C(F)(F)F)C2O)nc1C(F)(F)F)C1CC1 (mixture of isomers) [A3-247]
100%: activity (mortality; infertile eggs) [2] | activity (mortality) ([1]; application rate 100 ppm) | activity (larval mortality) [3] | activity (mortality) (Musca domestica)

CC(=O)NCc1ccc(N2CCC(c3cc(Cl)cc(C(F)(F)F)c3)(C(F)(F)F)C2O)nc1C(F)(F)F (mixture of isomers) [A3-265]
100%: activity (mortality; infertile eggs) [2] | activity (mortality) ([1]; application rate 100 ppm) | activity (mortality) (Ctenocephalides felis) | activity (larval mortality) [3] | activity (mortality) (Musca domestica)

O=C(CC(F)(F)F)NCc1ccc(N2CCC(c3cc(Cl)cc(C(F)(F)F)c3)(C(F)(F)F)C2O)nc1C(F)(F)F (racemic) [A3-271]
100%: activity (mortality; infertile eggs) [2] | activity (mortality) ([1]; application rate 100 ppm) | activity (mortality) (Ctenocephalides felis) | activity (larval mortality) [3] | activity (mortality) (Musca domestica)

O=C(NCc1ccc(N2CCC(c3cc(Cl)c(Cl)c(Cl)c3)(C(F)(F)F)C2O)cc1Cl)C1CC1 (stereo not shown) [A1-16]
100%: activity (mortality; infertile eggs) [2] | activity (mortality) ([1]; application rate 100 ppm) | activity (larval mortality) [3] | activity (mortality) (Musca domestica)

O=C(CC(F)(F)F)NCc1ccc(N2CCC(c3cc(Cl)c(Cl)c(Cl)c3)(C(F)(F)F)C2O)cc1Cl (stereo not shown) [A1-18]
100%: activity (mortality; infertile eggs) [2] | activity (mortality) ([1]; application rate 100 ppm) | activity (mortality) (Ctenocephalides felis) | activity (larval mortality) [3]

CC(=O)NCc1ccc(N2CCC(c3cc(C(F)(F)F)cc(C(F)(F)F)c3)(C(F)(F)F)C2O)cc1Cl (stereo not shown) [A1-23]
100%: activity (mortality; infertile eggs) [2] | activity (mortality) ([1]; application rate 20 ppm) | activity (mortality) (Ctenocephalides felis) | activity (larval mortality) [3] | activity (mortality) (Musca domestica)

CCC(=O)NCc1ccc(N2CCC(c3cc(C(F)(F)F)cc(C(F)(F)F)c3)(C(F)(F)F)C2O)cc1Cl (stereo not shown) [A1-24]
100%: activity (mortality; infertile eggs) [2] | activity (mortality) ([1]; application rate 20 ppm) | activity (mortality) (Ctenocephalides felis) | activity (larval mortality) [3] | activity (mortality) (Musca domestica)

CSCC(=O)NCc1ccc(N2CCC(c3cc(C(F)(F)F)cc(C(F)(F)F)c3)(C(F)(F)F)C2O)cc1Cl (stereo not shown) [A1-31]
100%: activity (mortality; infertile eggs) [2] | activity (mortality) ([1]; application rate 20 ppm) | activity (mortality) (Ctenocephalides felis) | activity (larval mortality) [3] | activity (mortality) (Musca domestica)

CS(=O)(=O)CC(=O)NCc1ccc(N2CCC(c3cc(C(F)(F)F)cc(C(F)(F)F)c3)(C(F)(F)F)C2O)cc1Cl (stereo not shown) [A1-33]
100%: activity (mortality; infertile eggs) [2] | activity (mortality) ([1]; application rate 20 ppm) | activity (mortality) (Ctenocephalides felis) | activity (larval mortality) [3] | activity (mortality) (Musca domestica)

O=C(NCc1ccc(N2CCC(c3cc(C(F)(F)F)cc(C(F)(F)F)c3)(C(F)(F)F)C2O)cc1Br)C1CC1 (stereo not shown) [A1-220]
100%: activity (mortality; infertile eggs) [2] | activity (mortality) ([1]; application rate 100 ppm) | activity (mortality) (Ctenocephalides felis) | activity (larval mortality) [3] | activity (mortality) (Musca domestica)

O=C(NCc1ccc(N2CCC(c3cc(F)cc(Cl)c3)(C(F)(F)F)C2O)cc1C(F)(F)F)C1CC1 (stereo not shown) [A1-242]
100%: activity (mortality; infertile eggs) [2] | activity (mortality) ([1]; application rate 100 ppm) | activity (mortality) (Ctenocephalides felis) | activity (larval mortality) [3]

O=C(NCc1ccc(N2CCC(c3cc(Br)cc(Br)c3)(C(F)(F)F)C2O)cc1C(F)(F)F)C1CC1 (stereo not shown) [A1-253]
100%: activity (mortality; infertile eggs) [2] | activity (mortality) ([1]; application rate 100 ppm) | activity (mortality) (Ctenocephalides felis) | activity (larval mortality) [3]

CCC(=O)NCc1ccc(N2CCC(c3cc(Cl)c(Cl)c(Cl)c3)(C(F)(F)F)C2O)nc1Br (stereo not shown) [A3-112]
100%: activity (mortality; infertile eggs) [2] | activity (mortality) ([1]; application rate 20 ppm) | activity (mortality) (Ctenocephalides felis) | activity (larval mortality) [3]

CCC(=O)NCc1cnc(N2CCC(c3cc(Cl)c(Cl)c(Cl)c3)(C(F)(F)F)C2O)nc1C(F)(F)F (stereo not shown) [A4-13]
100%: activity (mortality; infertile eggs) [2] | activity (mortality) ([1]; application rate 100 ppm) | activity (mortality) (Ctenocephalides felis) | activity (larval mortality) [3]

CCC(=O)NCc1cnc(N2CCC(c3cc(Cl)c(F)c(Cl)c3)(C(F)(F)F)C2O)nc1C(F)(F)F (stereo not shown) [A4-101]
100%: activity (mortality) ([1]; application rate 100 ppm)

O=C(NCc1cnc(N2CCC(c3cc(Cl)c(F)c(Cl)c3F)(C(F)(F)F)C2O)nc1C(F)(F)F)C1CC1 (stereo not shown) [A4-115]
100%: activity (mortality; infertile eggs) [2] | activity (mortality) ([1]; application rate 100 ppm) | activity (larval mortality) [3] | activity (mortality) (Musca domestica)

O=C(CC(F)(F)F)NCc1cnc(N2CCC(c3cc(Cl)c(Cl)c(Cl)c3)(C(F)(F)F)C2O)cc1C(F)(F)F (stereo not shown) [A5-18]
100%: activity (mortality; infertile eggs) [2] | activity (mortality) ([1]; application rate 100 ppm) | activity (larval mortality) [3] | activity (mortality) (Musca domestica)

CC(=O)NCc1cnc(N2CCC(c3cc(Cl)c(F)c(Cl)c3F)(C(F)(F)F)C2O)cc1C(F)(F)F (stereo not shown) [A5-78]
100%: activity (mortality) ([1]; application rate 100 ppm)
